Results published in paper PMC5922012.
No constants are given. Whether binding was seen depends on the method and setting. In cells and extracts the contact can be indirect. Some binding calls cover weakened binding; strength is not graded here.

Biological target: T1, calretinin (human) (UniProt P22676)
T1 sequence: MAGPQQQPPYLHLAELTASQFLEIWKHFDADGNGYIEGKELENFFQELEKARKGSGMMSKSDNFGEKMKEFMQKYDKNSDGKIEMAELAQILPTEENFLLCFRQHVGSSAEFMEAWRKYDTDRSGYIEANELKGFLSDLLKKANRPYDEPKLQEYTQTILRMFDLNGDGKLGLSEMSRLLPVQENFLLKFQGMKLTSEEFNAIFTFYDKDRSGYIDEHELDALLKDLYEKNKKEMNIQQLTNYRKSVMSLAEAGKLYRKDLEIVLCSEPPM
Experiment: co-IP; cleared lysates of MM cells (MSTO-211H-CR, ZL55-CR) in 150 mM NaCl, 1% Triton X-100, 50 mM Tris-HCl pH 8.0; rabbit polyclonal anti-CR antiserum and protein A MicroBeads at 4 °C; washed with 150 mM NaCl, 1% NP-40, 0.5% sodium deoxycholate, 0.1% SDS, 50 mM Tris-HCl pH 8.0; Western blot for septin 7

B1: septin 7 (protein, UniProt Q16181 1-437)
chain: MSVSARSAAAEERSVNSSTMVAQQKNLEGYVGFANLPNQVYRKSVKRGFEFTLMVVGESGLGKSTLINSLFLTDLYSPEYPGPSHRIKKTVQVEQSKVLIKEGGVQLLLTIVDTPGFGDAVDNSNCWQPVIDYIDSKFEDYLNAESRVNRRQMPDNRVQCCLYFIAPSGHGLKPLDIEFMKRLHEKVNIIPLIAKADTLTPEECQQFKKQIMKEIQEHKIKIYEFPETDDEEENKLVKKIKDRLPLAVVGSNTIIEVNGKRVRGRQYPWGVAEVENGEHCDFTILRNMLIRTHMQDLKDVTNNVHYENYRSRKLAAVTYNGVDNNKNKGQLTKSPLAQMEEERREHVAKMKKMEMEMEQVFEMKVKEKVQKLKDSEAELQRRHEQMKKNLEAQHKELEEKRRQFEDEKANWEAQQRILEQQNSSRTLEKNKKKGKIF
- binding: binds
